# Measurements reported in patent US10995068B2, “Synthetic sphingolipid-like molecules, drugs, methods of their synthesis and methods of treatment” (The Regents of the University of California, priority 2015, dated 2021).
# By UniProt entry, the sequences of proteins in these tests, tags left out. Where a name states a change or a piece, a line headed by the entry shows the natural chain unless it says otherwise.
# UniProt P21453, whole entry: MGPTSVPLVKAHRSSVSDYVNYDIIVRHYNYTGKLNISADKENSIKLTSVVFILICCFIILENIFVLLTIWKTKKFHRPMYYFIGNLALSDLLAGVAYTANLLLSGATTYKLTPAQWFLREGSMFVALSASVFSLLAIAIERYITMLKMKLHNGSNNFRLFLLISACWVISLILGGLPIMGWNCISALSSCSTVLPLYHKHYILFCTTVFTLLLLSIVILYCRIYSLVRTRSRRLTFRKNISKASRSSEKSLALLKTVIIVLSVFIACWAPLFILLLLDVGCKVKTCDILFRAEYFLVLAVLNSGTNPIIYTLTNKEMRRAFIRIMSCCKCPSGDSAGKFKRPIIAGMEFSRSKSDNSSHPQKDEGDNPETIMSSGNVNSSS
# Some of these results come from one statement about several compounds together. At least one compound was matched to its structure with a doubt left.
# Key:
# [1] = system: PC3 prostate cancer cells; assay: Cell Titer Glo proliferation assay in PC3; format: cell-based, human; conditions: PC3 and DU145, Cell Titer Glo
# Experimental: Previously presented compounds 1-4 (FIG. 23), compounds 5-8 (FIG. 28), and control compound FTY720 (FIG. 2) were used to treat the well-established PC3 and DU145 prostate cancer lines (FIG. 29 and Table 1). A Cell Titer Glo assay was performed to measure proliferation of the cancer lines.
# Cell culture studies: Sup-B15 cells are maintained at 2-3 million/mL in RPMI 1640 (Mediatech) supplemented with 10% fetal calf serum (FCS, Sigma-Aldrich), 10 mM Hepes (Mediatech), 55 μM β-mercaptoethanol (Sigma-Aldrich), 2 mM L-glutamine (Mediatech), and antibiotics. All adherent cells are maintained at 70-80% confluence. Cell are cultured in the following media: PC3 & A549, Ham's F12K (Corning Cell Gro) supplemented with 10% FCS and antibiotics; DU145 cells, MEM (Corning Cell Gro) supplemented with 10% FCS, 1 mM sodium pyruvate (Mediatech), and antibiotics; SW620 & MDA-MB-231, DMEM (Corning Cell Gro) with 10% FCS, 1 mM sodium pyruvate (Mediatech), and antibiotics; Panc-1 cells, DMEM (Corning Cell Gro) supplemented with 10% FCS and antibiotics. All of the above cell lines are available from the ATCC.
# (§1) Viability assays: Cell Titer Glo assays (Cell Titer Glo Luminescent Cell Viability Assay kit, cat #G7571, Promega Corporation) are performed in clear bottom 96-well black cell culture plates (cat #655090, Greiner Bio-One, NC, USA). After plating at 1,000 cells/well in volume of 100 μl, cells are left undisturbed for at least 24 h before drug addition. After 72 h, cells are prepared for analysis by adding 10 μl of 0.1% Triton-X100 in PBS with shaking for 1 min at room temperature (RT). Cell Titer-Glo cell lysis reagent (20 μl) is then added followed by 1 min of shaking and a 10 min incubation in the dark at RT. Luminescence is detected using an IVIS imaging system (IVIS Lumina II, Perkin Elmer, USA). […] IC50s are determined using GraphPad Prism (GraphPad Software, Inc, La Jolla, Calif.). SupB-15 viability was determined by flow cytometry. Cell Titer Glo assays were performed with the other cell lines.
# [2] = system: PC3 prostate cancer cells; assay: Cell viability by vital dye exclusion and flow cytometry in PC3; format: cell-based, human; conditions: vital dye exclusion (DAPI) and flow cytometry, 72 h
# Experimental: Thus, to determine whether analogues in accordance with embodiments of the invention are cytotoxic, studies were conducted using vital dye exclusion and flow cytometry (Table 2).
# as §1
# [3] = target: T1, S1P receptor 1 (Homo sapiens, UniProt P21453); assay: S1P receptor activation in CHO cells, S1P1; format: cell-based; conditions: 1000-fold higher doses than the S1P control
# T1 construct: expressed in transfected cells
# Description: Phosphorylation may have effects on S1P receptor activity that could cause bradycardia. Bradycardia, the dose-limiting toxicity that prevents the use of FTY720 in cancer patients, stems from FTY720-P's actions on S1P receptors 1 and 3. (Camm, J., et al. (2014) Am. Heart J. 168, 632-644; Cohen, J. A., Chun, J. (2011) Ann. Neurol. 69, 759-777; Sanna, M. G., et al. (2004) J. Biol. Chem. 279, 13839-13848; the disclosures of which are incorporated herein by reference). Phosphorylation by sphingosine kinase may make compounds competent to activate S1P receptors. FTY720, for example, when phosphorylated is known to activate S1P receptors 1 and 3. Because compound 5 could be phosphorylated, the activity of compound 5 and its phosphate 5-P (FIG. 28) on S1P receptors was evaluated (FIG. 32).
# 51P1-5 activation: Chinese hamster ovary (CHO) cells stably over-expressing the different human 51P receptor subtypes are used. S1P1, S1P4 and S1P5 overexpressing CHO cells are cultured in medium containing alpha-MEM supplemented with 10% FBS, 50 μg/ml gentamycin and 0.5 mg/ml G418. S1P2 and S1P3 overexpressing CHO cells are cultured in RPMI containing 10% FBS, 50 μg/ml gentamycin and 0.5 mg/ml G418. Prior to stimulation, cells are rendered serum-free for 24 h. Stimulation is carried out for 10 min in serum-free DMEM containing 0.1 mg/ml of fatty-acid free BSA in the absence or presence of the various compounds or 51P. Protein lysates are prepared using a buffer containing (50 mM Tris pH 7.4, 150 mM NaCl, 10% glycerol, 1% Triton X-100, 2 mM EDTA, 2 mM EGTA, 40 mM β-glycerophosphate, 50 mM sodium fluoride, 10 mM sodium pyrophosphate, 2 mM dithiothreitol, 0.2 mM sodium orthovanadate). Cells are homogenized by one 5 sec burst in a MSE Ultrasonic Disintegrator, centrifuged and taken for protein determination. Equal amounts of protein are separated by SDS-PAGE (10% polyacrylamide gel), transferred to nitrocellulose membranes and subjected to Western blot analysis. Bands were stained using IRDye® secondary antibodies and visualized by the LICOR Odyssey® Fc Imaging system. […]
# [4] = system: murine hematopoietic cell line FL5.12; assay: Viability of FL5.12 cells by vital dye exclusion; format: cell-based; conditions: IC50, FL5.12 cells
# Experimental: Cell culture studies: FL5.12 cells (murine hematopoetic cells originally obtained from Craig Thompson, Memorial Sloan Kettering Cancer Center) were maintained at 0.1-0.5 million/ml in RPMI 1640 (Mediatech) supplemented with 10% fetal calf serum (FCS, Sigma-Aldrich), 10 mM Hepes (Mediatech), 500 pg/ml recombinant IL-3 (cat #575502, Biolegend), 55 μM β-mercaptoethanol (Sigma-Aldrich), 2 mM L-glutamine (Mediatech), and antibiotics. Cells were screened for Mycoplasma every 3 months using the Look-Out Mycoplasma PCR Detection kit (cat #MP0035, Sigma).
# IC50 values were calculated using GraphPad Prism (GraphPad Software, Inc, La Jolla, Calif.).
structure (smiles),measurement,setting,value
"CCCCCCCCc1ccc([C@H]2C[C@H](CO)N[C@H]2CO)cc1 [Compound 1, (2R,3R,5R)-2,5-bis-hydroxymethyl-3-(4-octyl)phenyl pyrrolidine]",activity in the prostate cancer cell proliferation assay (in words),[1],able to retain its anticancer activity
CCCCCCCCc1ccc([C@@H]2C[C@@H](CO)N[C@@H]2CO)cc1 [Compound 2],activity in the prostate cancer cell proliferation assay (in words),[1],able to retain its anticancer activity
"CCCCCCCCc1ccc([C@H]2C[C@H](CO)N[C@H]2CO)cc1.Cl [Compound 3, (2R,3R,5R)-2,5-Bis(hydroxymethyl)-3-(4-octylphenyl)pyrrolidinium chloride]",IC50 for cell viability in PC3 Prostate Cancer cells,[2],found to be cytotoxic
same,activity in the prostate cancer cell proliferation assay (in words),[1],able to retain its anticancer activity
"CCCCCCCCc1ccc([C@H]2CCN[C@@H]2CO)cc1.Cl [Compound 5, (2S,3R)-2-(hydroxymethyl)-3-(4-octylphenyl)Pyrrolidinium chloride]",dose at which S1P receptor 1 was weakly activated,[3],> 1 µM
same,IC50 for cell viability in PC3 Prostate Cancer cells,[2],found to be cytotoxic
same,activity in the prostate cancer cell proliferation assay (in words),[1]; listed as compound 5,able to retain its anticancer activity
"CCCCCCCCc1ccc([C@H]2CCN[C@@H]2COP(=O)(O)O)cc1 [Compound 5-P, ((2S,3R)-3-(4-octylphenyl)pyrrolidin-1-ium-2-yl)Methyl hydrogen phosphate]",dose at which S1P receptor 1 was weakly activated,[3],> 1 µM
CCCCCCCCc1ccc([C@@H]2CCN[C@H]2CO)cc1.Cl [Compound 6],dose at which S1P receptor 1 was weakly activated,[3],> 1 µM
same,IC50 for cell viability in PC3 Prostate Cancer cells,[2],found to be cytotoxic
same,activity in the prostate cancer cell proliferation assay (in words),[1]; listed as compound 6,able to retain its anticancer activity
CCCCCCCCc1ccc(C2CCNC2CO)cc1.Cl (stereo not shown) [Compound 7],activity in the prostate cancer cell proliferation assay (in words),[1],able to retain its anticancer activity
CCCCCCCCc1ccc(C2CCNC2CO)cc1.Cl (stereo not shown) [Compound 8],activity in the prostate cancer cell proliferation assay (in words),[1],able to retain its anticancer activity
CCCCCCCCc1ccc([C@H]2CCN[C@@H]2COC)cc1.Cl [Compound 15],activity in the prostate cancer cell proliferation assay (in words),[1],nearly as potent as the parent 2-hydroxymethyl compounds and FTY720
CCCCCCCCc1ccc(COC2CC(CO)N(C(=N)N)C2)cc1 (stereo not shown) [Compound 132],fold reduction of potency compared to the parent compounds 103 and 102,[4],5-7 fold
CCCCCCCCc1ccc(COC2CC(CO)N(C(=N)N)C2)cc1 (stereo not shown) [Compound 133],fold reduction of potency compared to the parent compounds 103 and 102,[4],5-7 fold
